This test has as its target T1, GST-TBC1D23 (1 to 513) (mouse) (UniProt Q8K0F1).
T1 sequence: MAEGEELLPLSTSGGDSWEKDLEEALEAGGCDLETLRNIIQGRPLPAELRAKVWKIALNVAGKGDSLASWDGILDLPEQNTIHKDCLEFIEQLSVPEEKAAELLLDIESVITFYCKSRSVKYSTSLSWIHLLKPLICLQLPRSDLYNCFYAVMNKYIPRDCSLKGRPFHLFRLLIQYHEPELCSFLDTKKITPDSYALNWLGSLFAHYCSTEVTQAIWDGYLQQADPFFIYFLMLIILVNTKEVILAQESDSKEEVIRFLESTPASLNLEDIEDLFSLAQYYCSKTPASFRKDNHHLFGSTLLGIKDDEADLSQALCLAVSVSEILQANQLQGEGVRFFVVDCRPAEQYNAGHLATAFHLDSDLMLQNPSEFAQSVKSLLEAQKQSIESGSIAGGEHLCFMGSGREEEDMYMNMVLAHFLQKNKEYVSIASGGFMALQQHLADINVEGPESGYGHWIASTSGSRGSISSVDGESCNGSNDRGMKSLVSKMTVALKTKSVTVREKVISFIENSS
Nature of the test: affinity purification with mass spectrometry; GST-TBC1D23 (1 to 513) or (514 to 684) on glutathione-Sepharose beads, 2 h with precleared 293T cell lysate (25 mM tris-HCl pH 7.4, 150 mM NaCl, 1 mM EDTA, 1% Triton X-100), elution with 1.5 M NaCl, MS; only the target purified.

The chains behind the UniProt entries cited, without tags or fusion partners.
UniProt Q13439: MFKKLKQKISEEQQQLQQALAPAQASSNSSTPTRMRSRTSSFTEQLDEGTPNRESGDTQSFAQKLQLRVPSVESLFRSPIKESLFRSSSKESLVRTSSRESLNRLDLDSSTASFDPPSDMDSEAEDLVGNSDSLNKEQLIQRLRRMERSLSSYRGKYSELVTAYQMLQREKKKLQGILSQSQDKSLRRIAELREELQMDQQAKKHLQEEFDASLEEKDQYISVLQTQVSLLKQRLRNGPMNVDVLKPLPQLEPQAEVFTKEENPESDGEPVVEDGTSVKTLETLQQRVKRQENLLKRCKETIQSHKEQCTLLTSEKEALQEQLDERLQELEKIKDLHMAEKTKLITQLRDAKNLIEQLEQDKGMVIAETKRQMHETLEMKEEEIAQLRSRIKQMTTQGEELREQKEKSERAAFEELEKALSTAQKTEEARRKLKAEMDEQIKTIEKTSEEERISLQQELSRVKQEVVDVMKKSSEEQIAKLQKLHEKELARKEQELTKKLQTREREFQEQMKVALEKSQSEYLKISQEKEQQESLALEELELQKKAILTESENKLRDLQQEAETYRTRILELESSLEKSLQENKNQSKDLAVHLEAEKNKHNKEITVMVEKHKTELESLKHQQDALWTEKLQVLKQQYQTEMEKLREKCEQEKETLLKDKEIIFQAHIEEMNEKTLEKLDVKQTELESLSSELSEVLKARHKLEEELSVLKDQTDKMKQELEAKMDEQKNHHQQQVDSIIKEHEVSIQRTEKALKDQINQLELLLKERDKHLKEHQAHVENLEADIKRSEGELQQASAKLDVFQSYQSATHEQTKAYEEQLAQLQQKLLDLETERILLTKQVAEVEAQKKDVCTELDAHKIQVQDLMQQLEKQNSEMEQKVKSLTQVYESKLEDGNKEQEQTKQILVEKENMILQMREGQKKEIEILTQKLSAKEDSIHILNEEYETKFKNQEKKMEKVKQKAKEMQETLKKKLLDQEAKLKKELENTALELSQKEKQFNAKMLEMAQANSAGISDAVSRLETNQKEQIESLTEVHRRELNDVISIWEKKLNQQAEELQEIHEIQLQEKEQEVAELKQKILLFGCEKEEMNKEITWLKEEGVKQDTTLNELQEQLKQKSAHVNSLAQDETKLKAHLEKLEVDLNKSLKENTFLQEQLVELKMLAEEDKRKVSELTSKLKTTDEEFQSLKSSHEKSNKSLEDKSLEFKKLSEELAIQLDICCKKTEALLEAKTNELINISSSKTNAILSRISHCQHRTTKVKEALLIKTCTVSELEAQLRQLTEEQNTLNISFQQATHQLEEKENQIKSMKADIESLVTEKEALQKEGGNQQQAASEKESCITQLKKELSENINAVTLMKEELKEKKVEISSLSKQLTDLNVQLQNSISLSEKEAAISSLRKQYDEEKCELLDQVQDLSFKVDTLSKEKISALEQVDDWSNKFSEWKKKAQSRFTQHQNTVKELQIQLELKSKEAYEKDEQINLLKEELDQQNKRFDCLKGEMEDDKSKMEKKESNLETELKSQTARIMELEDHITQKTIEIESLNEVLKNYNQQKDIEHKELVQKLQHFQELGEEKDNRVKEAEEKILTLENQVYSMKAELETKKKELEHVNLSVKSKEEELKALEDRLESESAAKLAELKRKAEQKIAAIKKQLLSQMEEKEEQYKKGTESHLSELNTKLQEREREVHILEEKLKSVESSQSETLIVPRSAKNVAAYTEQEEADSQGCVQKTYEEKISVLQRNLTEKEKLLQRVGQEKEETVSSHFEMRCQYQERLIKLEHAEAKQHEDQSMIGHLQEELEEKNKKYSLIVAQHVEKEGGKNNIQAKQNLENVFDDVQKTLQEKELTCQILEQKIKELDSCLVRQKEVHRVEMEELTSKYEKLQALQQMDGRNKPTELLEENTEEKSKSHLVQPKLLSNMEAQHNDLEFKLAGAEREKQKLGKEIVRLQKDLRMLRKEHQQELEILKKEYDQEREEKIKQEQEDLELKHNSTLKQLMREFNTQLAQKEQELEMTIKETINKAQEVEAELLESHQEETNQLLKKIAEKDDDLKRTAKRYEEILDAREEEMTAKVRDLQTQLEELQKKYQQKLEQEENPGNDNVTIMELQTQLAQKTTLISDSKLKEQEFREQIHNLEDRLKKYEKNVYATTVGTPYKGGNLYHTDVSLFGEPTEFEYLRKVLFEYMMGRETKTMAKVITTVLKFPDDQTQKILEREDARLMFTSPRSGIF

These are yes or no findings as the source states them, for the method shown. Binding seen in cells or lysates may run through a third protein. A yes stands for co-enrichment or nearness to the bait. Other partners may have been found. Sequences can lack the tags named with a protein.

Regarding “golgin-245 (endogenous, 293T cell lysate) (from UniProt Q13439 1-2230)”, the binding result is listed as “binds”.

Source of the values: paper PMC11093223, “Cargo selective vesicle tethering: The structural basis for binding of specific cargo proteins by the Golgi tether component TBC1D23” (Science Advances, 2024).
